For one test, the target named is pGBT9-FADD (human) (UniProt Q13158). Briefly: two-hybrid; Matchmaker Gal4 system; FADD as bait in pGBT9, DDX24 as prey in pGADT7; colonies seeded on SD-His/-Leu/-Trp plates.
The target in the next test is c-Myc-RIP1 (UniProt Q13546). Briefly: co-IP; expression vectors transfected into 293T cells; lysis in NP40 IP buffer (50 mM Tris pH 8.0, 150 mM NaCl, 0.5% NP-40) or RIPA; antibody overnight at 4°C, Protein G 3 hours; immunoblot for c-Myc or FLAG; in Figure 6G-I with or without co-expressed DDX24 or DDX24 siRNA. In general terms: In western blotting, separated proteins are transferred to a membrane and probed.

Sequences of proteins named here, by UniProt entry; tags and fusion partners are left off.
UniProt Q13158: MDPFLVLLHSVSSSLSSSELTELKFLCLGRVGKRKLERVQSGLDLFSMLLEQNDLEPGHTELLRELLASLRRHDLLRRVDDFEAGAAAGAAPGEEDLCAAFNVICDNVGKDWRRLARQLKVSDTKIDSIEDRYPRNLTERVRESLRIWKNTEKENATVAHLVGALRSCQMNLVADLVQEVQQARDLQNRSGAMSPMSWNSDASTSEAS
UniProt Q13546: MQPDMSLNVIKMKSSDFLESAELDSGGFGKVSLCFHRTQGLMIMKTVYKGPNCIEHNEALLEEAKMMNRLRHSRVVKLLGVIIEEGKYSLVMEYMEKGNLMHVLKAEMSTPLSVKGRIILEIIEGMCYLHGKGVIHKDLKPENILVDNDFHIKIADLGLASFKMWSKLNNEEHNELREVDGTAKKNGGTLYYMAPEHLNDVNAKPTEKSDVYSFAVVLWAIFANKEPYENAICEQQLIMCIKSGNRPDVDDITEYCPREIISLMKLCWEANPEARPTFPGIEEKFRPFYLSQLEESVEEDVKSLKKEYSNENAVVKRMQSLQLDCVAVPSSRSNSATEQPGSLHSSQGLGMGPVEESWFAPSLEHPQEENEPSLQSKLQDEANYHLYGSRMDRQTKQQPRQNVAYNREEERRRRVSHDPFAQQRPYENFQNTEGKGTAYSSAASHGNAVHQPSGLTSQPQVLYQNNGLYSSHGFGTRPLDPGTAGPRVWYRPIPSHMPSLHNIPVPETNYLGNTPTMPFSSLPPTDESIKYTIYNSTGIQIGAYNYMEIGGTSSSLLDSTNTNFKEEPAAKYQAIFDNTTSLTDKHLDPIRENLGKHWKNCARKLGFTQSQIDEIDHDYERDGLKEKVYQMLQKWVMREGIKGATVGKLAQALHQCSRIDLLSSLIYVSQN

For test [1], the target named is endogenous human FADD (HUVEC) (human (endogenous in HUVEC)) (UniProt Q13158). The test is described as follows: co-IP; endogenous proteins; HUVEC lysate immunoprecipitated with anti-FADD or mouse IgG serum, immunoblot with anti-DDX24 or anti-FADD.
In the next test the target is FLAG-FADD (UniProt Q13158). Briefly: co-IP; expression vectors transfected into 293T cells; lysis in NP40 IP buffer (50 mM Tris pH 8.0, 150 mM NaCl, 0.5% NP-40) or RIPA; antibody overnight at 4°C, Protein G 3 hours; immunoblot for c-Myc or FLAG; in Figure 6G-I with or without co-expressed DDX24 or DDX24 siRNA.

No constants are given. Whether binding was seen depends on the method and setting. For part of these data: In cells and extracts the contact can be indirect. Some results given as binding are weak or reduced against the parent protein; the word gives no strength. For part of these data: Where a sequence is shown, tags or fusion partners need not be part of it.

B1: pGADT7-DDX24 (protein, UniProt Q9GZR7 1-859)
chain: MKLKDTKSRPKQSSCGKFQTKGIKVVGKWKEVKIDPNMFADGQMDDLVCFEELTDYQLVSPAKNPSSLFSKEAPKRKAQAVSEEEEEEEGKSSSPKKKIKLKKSKNVATEGTSTQKEFEVKDPELEAQGDDMVCDDPEAGEMTSENLVQTAPKKKKNKGKKGLEPSQSTAAKVPKKAKTWIPEVHDQKADVSAWKDLFVPRPVLRALSFLGFSAPTPIQALTLAPAIRDKLDILGAAETGSGKTLAFAIPMIHAVLQWQKRNAAPPPSNTEAPPGETRTEAGAETRSPGKAEAESDALPDDTVIESEALPSDIAAEARAKTGGTVSDQALLFGDDDAGEGPSSLIREKPVPKQNENEEENLDKEQTGNLKQELDDKSATCKAYPKRPLLGLVLTPTRELAVQVKQHIDAVARFTGIKTAILVGGMSTQKQQRMLNRRPEIVVATPGRLWELIKEKHYHLRNLRQLRCLVVDEADRMVEKGHFAELSQLLEMLNDSQYNPKRQTLVFSATLTLVHQAPARILHKKHTKKMDKTAKLDLLMQKIGMRGKPKVIDLTRNEATVETLTETKIHCETDEKDFYLYYFLMQYPGRSLVFANSISCIKRLSGLLKVLDIMPLTLHACMHQKQRLRNLEQFARLEDCVLLATDVAARGLDIPKVQHVIHYQVPRTSEIYVHRSGRTARATNEGLSLMLIGPEDVINFKKIYKTLKKDEDIPLFPVQTKYMDVVKERIRLARQIEKSEYRNFQACLHNSWIEQAAAALEIELEEDMYKGGKADQQEERRRQKQMKVLKKELRHLLSQPLFTESQKTKYPTQSGKPPLLVSAPSKSESALSCLSKQKKKKTKKPKEPQPEQPQPSTSAN
With B1, the binding result in the test with pGBT9-FADD (human) is recorded as “binds”.

B2: FLAG-DDX24 (protein, UniProt Q9GZR7 1-859)
chain: B1 chain
Regarding B2, the binding entry with c-Myc-RIP1 is given as “binds”.

B3: endogenous human DDX24 (HUVEC) (protein, UniProt Q9GZR7 1-859)
chain: B1 chain
Consider B3, for which, in test [1], the binding entry was “binds”.

B4: c-Myc-DDX24 (protein, UniProt Q9GZR7 1-859)
chain: B1 chain
As for B4, the binding result in the test with FLAG-FADD is given as “binds”.

B5: IRF7 (protein, UniProt Q92985 1-503)
chain: MALAPERAAPRVLFGEWLLGEISSGCYEGLQWLDEARTCFRVPWKHFARKDLSEADARIFKAWAVARGRWPPSSRGGGPPPEAETAERAGWKTNFRCALRSTRRFVMLRDNSGDPADPHKVYALSRELCWREGPGTDQTEAEAPAAVPPPQGGPPGPFLAHTHAGLQAPGPLPAPAGDKGDLLLQAVQQSCLADHLLTASWGADPVPTKAPGEGQEGLPLTGACAGGPGLPAGELYGWAVETTPSPGPQPAALTTGEAAAPESPHQAEPYLSPSPSACTAVQEPSPGALDVTIMYKGRTVLQKVVGHPSCTFLYGPPDPAVRATDPQQVAFPSPAELPDQKQLRYTEELLRHVAPGLHLELRGPQLWARRMGKCKVYWEVGGPPGSASPSTPACLLPRNCDTPIFDFRVFFQELVEFRARQRRGSPRYTIYLGFGQDLSAGRPKEKSLVLVKLEPWLCRVHLEGTQREGVSSLDSSSLSLCLSSANSLYDDIECFLMELEQPA
Consider B5, for which the binding result with c-Myc-RIP1 is recorded as “binds”.

B6: c-Myc-DDX24-N (domain or fragment, UniProt Q9GZR7 1-577)
chain: MKLKDTKSRPKQSSCGKFQTKGIKVVGKWKEVKIDPNMFADGQMDDLVCFEELTDYQLVSPAKNPSSLFSKEAPKRKAQAVSEEEEEEEGKSSSPKKKIKLKKSKNVATEGTSTQKEFEVKDPELEAQGDDMVCDDPEAGEMTSENLVQTAPKKKKNKGKKGLEPSQSTAAKVPKKAKTWIPEVHDQKADVSAWKDLFVPRPVLRALSFLGFSAPTPIQALTLAPAIRDKLDILGAAETGSGKTLAFAIPMIHAVLQWQKRNAAPPPSNTEAPPGETRTEAGAETRSPGKAEAESDALPDDTVIESEALPSDIAAEARAKTGGTVSDQALLFGDDDAGEGPSSLIREKPVPKQNENEEENLDKEQTGNLKQELDDKSATCKAYPKRPLLGLVLTPTRELAVQVKQHIDAVARFTGIKTAILVGGMSTQKQQRMLNRRPEIVVATPGRLWELIKEKHYHLRNLRQLRCLVVDEADRMVEKGHFAELSQLLEMLNDSQYNPKRQTLVFSATLTLVHQAPARILHKKHTKKMDKTAKLDLLMQKIGMRGKPKVIDLTRNEATVETLTETKIHCETDEKDF
In the case of B6, the binding result with FLAG-FADD is listed as “binds”.

These data come from article PMC3814876.
